These results are taken from paper PMC9232636, “Insights into the mechanism of action of the arbitrium communication system in SPbeta phages” (Nature Communications, 2022).

In this experiment the target is AimR^Kat-N273A (Katmira phage (resident phage of Bacillus subtilis subsp. KATMIRA1933)). Kind of experiment: thermal shift assay (ThermoFluor); 20 μM protein, 5× Sypro Orange, 0.5 μM peptide as printed; 20 mM Tris pH 8, 250 mM NaCl; 25 to 85 °C; both purified.

No constants are given. Whether binding was seen depends on the method and setting. Binding can be weak; no strength is given.

As to GIVRGA [AimP^Kat, active (mature) Katmira AimP peptide GIVRGA], the binding entry is listed as “binds”.

Turning to GMPRGA [AimP^SPβ, the SPβ AimP peptide GMPRGA], the binding entry is on record as “binds”.
